Source: publication PMC4889050
No constants are given. Whether binding was seen depends on the method and setting. Binding seen in cells or lysates may run through a third protein. Some entries that bind do so weakly or less than the wild type.

By UniProt entry, the sequences of proteins in these tests, tags left out.
UniProt P13010: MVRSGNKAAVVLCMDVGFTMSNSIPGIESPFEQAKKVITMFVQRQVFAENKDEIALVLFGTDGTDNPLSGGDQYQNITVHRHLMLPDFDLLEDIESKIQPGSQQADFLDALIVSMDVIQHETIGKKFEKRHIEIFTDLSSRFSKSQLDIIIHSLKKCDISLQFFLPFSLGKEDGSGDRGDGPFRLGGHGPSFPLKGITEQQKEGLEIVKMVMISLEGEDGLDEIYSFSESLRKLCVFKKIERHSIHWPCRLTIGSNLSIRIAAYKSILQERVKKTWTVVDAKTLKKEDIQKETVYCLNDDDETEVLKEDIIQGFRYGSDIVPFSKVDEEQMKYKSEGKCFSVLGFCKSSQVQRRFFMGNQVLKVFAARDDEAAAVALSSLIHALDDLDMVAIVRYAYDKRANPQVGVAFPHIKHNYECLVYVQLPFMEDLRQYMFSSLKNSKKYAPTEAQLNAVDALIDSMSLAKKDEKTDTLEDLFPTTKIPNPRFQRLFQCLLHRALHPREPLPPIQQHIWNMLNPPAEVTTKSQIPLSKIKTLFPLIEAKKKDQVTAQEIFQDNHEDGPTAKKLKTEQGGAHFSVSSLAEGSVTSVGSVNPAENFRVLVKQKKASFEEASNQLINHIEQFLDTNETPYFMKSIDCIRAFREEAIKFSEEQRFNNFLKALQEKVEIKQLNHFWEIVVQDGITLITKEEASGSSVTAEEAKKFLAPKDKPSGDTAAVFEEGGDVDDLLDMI
UniProt P09874: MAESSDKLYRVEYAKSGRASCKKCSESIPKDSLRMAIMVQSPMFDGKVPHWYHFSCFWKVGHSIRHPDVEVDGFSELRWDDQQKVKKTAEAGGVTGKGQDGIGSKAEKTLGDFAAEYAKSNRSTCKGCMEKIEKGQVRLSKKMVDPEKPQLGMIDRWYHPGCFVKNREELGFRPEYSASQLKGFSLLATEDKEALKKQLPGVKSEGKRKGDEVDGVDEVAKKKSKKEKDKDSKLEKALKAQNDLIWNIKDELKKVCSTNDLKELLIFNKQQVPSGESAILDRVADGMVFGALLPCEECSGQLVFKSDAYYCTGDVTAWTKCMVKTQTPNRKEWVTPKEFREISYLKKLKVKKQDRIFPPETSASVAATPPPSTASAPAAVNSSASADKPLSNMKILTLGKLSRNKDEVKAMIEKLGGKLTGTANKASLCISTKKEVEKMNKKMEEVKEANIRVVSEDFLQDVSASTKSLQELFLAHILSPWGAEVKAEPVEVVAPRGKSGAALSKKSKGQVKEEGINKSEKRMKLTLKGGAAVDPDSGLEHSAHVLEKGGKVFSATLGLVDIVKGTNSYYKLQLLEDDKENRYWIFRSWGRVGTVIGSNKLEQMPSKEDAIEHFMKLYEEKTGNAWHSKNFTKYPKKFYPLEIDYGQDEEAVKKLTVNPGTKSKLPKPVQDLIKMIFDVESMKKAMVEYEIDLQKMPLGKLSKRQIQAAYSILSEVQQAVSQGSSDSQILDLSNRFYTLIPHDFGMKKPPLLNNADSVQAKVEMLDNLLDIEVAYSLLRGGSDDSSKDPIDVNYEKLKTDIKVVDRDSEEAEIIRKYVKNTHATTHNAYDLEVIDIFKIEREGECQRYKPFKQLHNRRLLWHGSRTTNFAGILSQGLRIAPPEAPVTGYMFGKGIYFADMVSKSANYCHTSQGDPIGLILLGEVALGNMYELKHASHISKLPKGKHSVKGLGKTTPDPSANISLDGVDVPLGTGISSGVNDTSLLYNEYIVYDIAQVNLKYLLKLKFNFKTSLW
UniProt P45973: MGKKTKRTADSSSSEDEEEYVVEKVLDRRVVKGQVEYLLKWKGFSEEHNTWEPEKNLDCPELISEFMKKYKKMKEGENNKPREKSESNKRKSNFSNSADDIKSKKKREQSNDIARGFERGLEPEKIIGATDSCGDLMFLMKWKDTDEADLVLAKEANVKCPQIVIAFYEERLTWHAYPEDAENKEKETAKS
UniProt P83916: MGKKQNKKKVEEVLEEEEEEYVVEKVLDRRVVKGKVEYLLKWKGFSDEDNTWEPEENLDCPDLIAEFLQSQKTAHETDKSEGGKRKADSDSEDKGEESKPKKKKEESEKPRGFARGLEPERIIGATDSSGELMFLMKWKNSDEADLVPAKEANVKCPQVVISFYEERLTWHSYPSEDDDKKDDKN
UniProt Q13185: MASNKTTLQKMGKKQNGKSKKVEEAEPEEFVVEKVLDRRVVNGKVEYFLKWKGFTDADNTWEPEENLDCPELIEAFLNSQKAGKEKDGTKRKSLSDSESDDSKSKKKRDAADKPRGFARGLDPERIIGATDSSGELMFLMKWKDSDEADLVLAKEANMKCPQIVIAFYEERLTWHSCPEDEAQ

Tests used:
[1] = target: T1, Halo-WDR76 (human) (UniProt Q9H967); assay: co-IP; HaloTag purification of Halo-WDR76 from whole cell lysate (Benzonase treated) of cells transiently transfected with CLIP-FLAG constructs, TEV elution; western blot with anti-FLAG; HEK293FRT as control
T1 sequence: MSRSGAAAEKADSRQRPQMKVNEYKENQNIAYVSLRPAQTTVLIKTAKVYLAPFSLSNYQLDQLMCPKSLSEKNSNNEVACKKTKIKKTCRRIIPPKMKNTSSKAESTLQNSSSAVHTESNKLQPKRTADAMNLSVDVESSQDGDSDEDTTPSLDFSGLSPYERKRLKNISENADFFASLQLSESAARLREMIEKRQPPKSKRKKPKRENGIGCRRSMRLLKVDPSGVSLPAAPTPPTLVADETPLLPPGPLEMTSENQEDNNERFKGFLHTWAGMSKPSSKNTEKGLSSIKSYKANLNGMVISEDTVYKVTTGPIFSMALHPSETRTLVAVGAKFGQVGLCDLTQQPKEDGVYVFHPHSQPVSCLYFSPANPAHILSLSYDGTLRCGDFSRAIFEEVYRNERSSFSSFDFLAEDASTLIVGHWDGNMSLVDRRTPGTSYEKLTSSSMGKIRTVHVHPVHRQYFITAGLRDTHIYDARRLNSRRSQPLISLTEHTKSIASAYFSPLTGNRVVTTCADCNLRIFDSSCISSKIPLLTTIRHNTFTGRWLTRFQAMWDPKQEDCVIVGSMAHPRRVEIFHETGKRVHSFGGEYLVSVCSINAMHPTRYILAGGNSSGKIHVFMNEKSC

[2] = target: T1, Halo-WDR76 (human); assay: co-IP; HaloTag bead purification of Halo-WDR76 from whole cell lysate (Benzonase treated), overnight at 4°C, washes 1xTBS 0.05% IGEPAL CA-630, TEV elution; western blot for endogenous PARP1 and XRCC5; parental HEK293FRT as control

Row | Substance | binding [1] | binding [2]
1 | XRCC5 (from UniProt P13010 1-732) | – | binds
2 | PARP1 (from UniProt P09874 1-1014) | – | binds

Other lines, results leading:

Row | binding [1] | binding [2] | Substance
3 | binds | – | CLIP-FLAG tagged CBX5 (from UniProt P45973 1-191)
4 | binds | – | CLIP-FLAG tagged CBX1 (from UniProt P83916 1-185)
5 | binds | – | CLIP-FLAG tagged CBX3 (from UniProt Q13185 1-183)
